Measured values reported in publication doi:10.1101/2020.05.28.122184.
Results are given in words; binding and its absence hold for the method and conditions named. Binding seen in cells or lysates may run through a third protein. Some binding calls cover weakened binding; strength is not graded here. For some assays here: Where a sequence is shown, tags or fusion partners need not be part of it.

Amino acid sequences for entries named in this document (tags omitted). A change or cut given only in a name is not applied to a line headed by its entry. Residues count along the entry.
UniProt Q01860, whole entry: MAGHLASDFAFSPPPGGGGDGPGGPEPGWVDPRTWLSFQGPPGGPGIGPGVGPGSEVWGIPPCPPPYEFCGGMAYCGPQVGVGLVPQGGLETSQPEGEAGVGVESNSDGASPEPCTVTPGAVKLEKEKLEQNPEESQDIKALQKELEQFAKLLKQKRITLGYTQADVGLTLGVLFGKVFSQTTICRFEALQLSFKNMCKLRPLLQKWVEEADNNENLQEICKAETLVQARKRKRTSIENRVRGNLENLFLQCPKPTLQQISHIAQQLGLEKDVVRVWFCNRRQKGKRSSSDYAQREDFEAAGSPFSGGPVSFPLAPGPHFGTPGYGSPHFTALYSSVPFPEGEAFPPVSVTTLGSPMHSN
UniProt P48431, whole entry: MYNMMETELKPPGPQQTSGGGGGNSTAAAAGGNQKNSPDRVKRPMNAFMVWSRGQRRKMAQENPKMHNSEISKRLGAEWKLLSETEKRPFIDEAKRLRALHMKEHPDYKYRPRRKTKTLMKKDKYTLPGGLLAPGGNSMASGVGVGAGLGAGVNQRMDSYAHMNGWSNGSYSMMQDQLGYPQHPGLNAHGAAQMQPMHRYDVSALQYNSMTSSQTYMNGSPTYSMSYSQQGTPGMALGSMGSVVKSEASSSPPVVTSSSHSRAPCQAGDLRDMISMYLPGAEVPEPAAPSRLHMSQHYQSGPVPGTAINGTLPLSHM
UniProt P48432, whole entry: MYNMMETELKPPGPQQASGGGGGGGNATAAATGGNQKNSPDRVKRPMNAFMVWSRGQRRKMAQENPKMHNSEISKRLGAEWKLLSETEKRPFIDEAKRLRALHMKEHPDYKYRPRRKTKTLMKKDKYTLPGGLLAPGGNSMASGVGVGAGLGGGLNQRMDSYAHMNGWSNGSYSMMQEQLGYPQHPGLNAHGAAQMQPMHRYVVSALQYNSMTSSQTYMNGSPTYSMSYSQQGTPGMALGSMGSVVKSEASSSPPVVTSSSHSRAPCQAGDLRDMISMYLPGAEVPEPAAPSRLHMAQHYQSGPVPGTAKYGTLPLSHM
UniProt Q8NE71, whole entry: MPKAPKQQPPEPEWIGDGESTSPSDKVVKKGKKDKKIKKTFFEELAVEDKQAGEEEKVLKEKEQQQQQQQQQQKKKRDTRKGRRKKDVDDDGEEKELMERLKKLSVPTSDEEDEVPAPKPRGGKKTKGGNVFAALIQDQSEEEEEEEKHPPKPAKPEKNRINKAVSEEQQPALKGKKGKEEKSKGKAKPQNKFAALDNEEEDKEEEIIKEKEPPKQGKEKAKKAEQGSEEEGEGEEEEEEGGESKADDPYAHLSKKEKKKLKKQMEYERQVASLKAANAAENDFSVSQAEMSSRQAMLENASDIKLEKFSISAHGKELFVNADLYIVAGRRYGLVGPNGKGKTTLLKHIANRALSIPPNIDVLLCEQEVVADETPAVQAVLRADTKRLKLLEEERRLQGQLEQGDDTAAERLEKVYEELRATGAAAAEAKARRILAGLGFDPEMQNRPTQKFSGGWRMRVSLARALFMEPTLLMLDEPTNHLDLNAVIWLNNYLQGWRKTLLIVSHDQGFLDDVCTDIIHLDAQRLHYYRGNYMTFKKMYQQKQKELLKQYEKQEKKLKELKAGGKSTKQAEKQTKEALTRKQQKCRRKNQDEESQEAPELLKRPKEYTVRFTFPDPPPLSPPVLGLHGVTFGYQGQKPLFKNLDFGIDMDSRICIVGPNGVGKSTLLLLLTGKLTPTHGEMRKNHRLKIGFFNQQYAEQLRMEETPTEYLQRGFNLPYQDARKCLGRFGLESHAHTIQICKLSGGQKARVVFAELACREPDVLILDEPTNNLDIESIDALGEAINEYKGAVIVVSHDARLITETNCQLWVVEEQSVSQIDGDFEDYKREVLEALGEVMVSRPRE
UniProt Q8NE71, 303-845, stated change not applied: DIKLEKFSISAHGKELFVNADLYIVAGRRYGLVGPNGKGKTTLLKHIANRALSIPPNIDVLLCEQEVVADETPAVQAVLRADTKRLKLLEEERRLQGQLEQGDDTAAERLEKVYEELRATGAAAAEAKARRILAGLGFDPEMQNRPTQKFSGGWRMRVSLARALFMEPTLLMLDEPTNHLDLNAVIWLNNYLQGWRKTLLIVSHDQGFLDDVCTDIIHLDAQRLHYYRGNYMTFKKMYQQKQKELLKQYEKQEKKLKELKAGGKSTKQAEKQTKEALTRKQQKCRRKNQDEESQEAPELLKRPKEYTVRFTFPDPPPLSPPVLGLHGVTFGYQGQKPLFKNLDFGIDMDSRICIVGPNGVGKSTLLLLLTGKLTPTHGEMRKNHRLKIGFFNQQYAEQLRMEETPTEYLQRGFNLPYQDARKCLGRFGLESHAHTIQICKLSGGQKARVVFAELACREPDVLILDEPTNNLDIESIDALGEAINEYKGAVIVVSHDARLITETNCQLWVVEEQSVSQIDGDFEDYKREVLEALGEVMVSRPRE
UniProt Q6P542, 2-837: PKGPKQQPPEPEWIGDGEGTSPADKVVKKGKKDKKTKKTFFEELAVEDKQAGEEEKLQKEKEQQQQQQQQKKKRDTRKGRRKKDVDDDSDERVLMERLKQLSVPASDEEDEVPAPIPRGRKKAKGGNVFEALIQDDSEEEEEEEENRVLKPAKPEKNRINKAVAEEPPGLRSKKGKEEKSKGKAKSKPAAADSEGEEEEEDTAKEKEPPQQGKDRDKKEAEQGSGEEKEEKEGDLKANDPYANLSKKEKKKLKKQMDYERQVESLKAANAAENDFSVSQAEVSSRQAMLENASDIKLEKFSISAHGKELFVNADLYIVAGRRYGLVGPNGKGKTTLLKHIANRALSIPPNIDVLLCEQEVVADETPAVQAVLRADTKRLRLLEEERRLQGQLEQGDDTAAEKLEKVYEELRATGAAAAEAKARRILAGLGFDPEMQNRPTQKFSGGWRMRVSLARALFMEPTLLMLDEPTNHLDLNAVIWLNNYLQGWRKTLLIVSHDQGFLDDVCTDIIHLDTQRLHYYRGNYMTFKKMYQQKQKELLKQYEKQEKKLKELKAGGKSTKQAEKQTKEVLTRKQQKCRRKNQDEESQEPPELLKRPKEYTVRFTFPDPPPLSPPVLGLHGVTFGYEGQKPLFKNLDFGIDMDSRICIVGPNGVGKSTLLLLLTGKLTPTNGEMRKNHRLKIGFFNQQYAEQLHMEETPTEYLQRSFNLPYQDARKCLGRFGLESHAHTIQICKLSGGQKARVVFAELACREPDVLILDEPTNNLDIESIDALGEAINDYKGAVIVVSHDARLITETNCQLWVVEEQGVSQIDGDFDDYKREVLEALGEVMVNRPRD
UniProt Q01831, whole entry: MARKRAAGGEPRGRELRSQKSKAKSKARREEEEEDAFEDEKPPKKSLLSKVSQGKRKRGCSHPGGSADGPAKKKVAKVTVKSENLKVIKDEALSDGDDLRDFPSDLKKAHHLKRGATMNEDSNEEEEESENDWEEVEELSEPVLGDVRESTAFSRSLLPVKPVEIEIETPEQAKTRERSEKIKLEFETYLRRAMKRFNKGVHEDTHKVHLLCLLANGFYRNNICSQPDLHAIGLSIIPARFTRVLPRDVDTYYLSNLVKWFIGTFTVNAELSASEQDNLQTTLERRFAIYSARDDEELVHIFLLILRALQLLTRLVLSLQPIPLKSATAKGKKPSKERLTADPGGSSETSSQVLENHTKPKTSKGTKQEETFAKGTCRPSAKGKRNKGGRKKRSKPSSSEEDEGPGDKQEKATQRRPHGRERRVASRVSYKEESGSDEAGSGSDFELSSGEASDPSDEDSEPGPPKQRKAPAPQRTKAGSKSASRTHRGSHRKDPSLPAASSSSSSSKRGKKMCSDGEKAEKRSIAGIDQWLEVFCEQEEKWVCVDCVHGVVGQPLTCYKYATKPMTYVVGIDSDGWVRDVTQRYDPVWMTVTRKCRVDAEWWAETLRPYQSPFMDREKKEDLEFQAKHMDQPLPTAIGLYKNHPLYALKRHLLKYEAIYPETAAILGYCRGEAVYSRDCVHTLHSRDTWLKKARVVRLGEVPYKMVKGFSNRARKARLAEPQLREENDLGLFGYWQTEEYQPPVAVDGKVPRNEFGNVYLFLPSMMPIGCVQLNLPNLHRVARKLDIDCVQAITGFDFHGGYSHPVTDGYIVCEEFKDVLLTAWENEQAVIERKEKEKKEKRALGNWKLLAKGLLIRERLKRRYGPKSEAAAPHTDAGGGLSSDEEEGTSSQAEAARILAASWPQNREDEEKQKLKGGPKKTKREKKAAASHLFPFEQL

T1: GST-GCN20 (1-197) (S. cerevisiae) (UniProt P43535)
T1 sequence: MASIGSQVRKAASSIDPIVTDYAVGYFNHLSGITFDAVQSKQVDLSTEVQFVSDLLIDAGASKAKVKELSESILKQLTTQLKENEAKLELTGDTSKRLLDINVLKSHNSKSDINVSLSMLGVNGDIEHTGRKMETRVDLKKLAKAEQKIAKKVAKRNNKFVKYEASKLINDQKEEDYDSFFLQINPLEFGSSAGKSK

T2: GST-SREBP1a (1-50) (human) (UniProt P36956)
T2 sequence: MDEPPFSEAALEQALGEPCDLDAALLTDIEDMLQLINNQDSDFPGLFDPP


Tests used:
FLAG-tagged OCT4 (human) = FLAG-tagged OCT4 (human) (UniProt Q01860); experiment: co-IP
[1] = target: HA-tagged SOX2 (SOX2-HA) (human) (UniProt P48431); experiment: co-IP
FLAG-tagged SOX2 (human) = FLAG-tagged SOX2 (human) (UniProt P48431); experiment: co-IP
[2] = target: SOX2 (endogenous, mouse ES cells) (mouse (endogenous in D3 ES cells)) (UniProt P48432); experiment: co-IP
[3] = target: T1, GST-GCN20 (1-197) (S. cerevisiae); experiment: pull-down
[4] = target: T2, GST-SREBP1a (1-50) (human); experiment: pull-down
[5] = target: GST-ABCF1 (1-302) (human) (UniProt Q8NE71); experiment: pull-down

Molecule | binding [1] | binding [3] | binding [4] | binding [5] | further results
V5-ABCF1 (endogenously V5-tagged mouse ABCF1, knock-in) (from UniProt Q6P542 2-837) |  |  |  |  | binding [2]: binds
XPC (from UniProt Q01831 1-940) |  | no binding | no binding | binds | 
DKC1 (protein, UniProt O60832 1-514) MADAEVIILPKKHKKKKERKSLPEEDVAEIQHAEEFLIKPESKVAKLDTSQWPLLLKNFDKLNVRTTHYTPLACGSNPLKREIGDYIRTGFINLDKPSNPSSHEVVAWIRRILRVEKTGHSGTLDPKVTGCLIVCIERATRLVKSQQSAGKEYVGIVRLHNAIEGGTQLSRALETLTGALFQRPPLIAAVKRQLRVRTIYESKMIEYDPERRLGIFWVSCEAGTYIRTLCVHLGLLLGVGGQMQELRRVRSGVMSEKDHMVTMHDVLDAQWLYDNHKDESYLRRVVYPLEKLLTSHKRLVMKDSAVNAICYGAKIMLPGVLRYEDGIEVNQEIVVITTKGEAICMAIALMTTAVISTCDHGIVAKIKRVIMERDTYPRKWGLGPKASQKKLMIKQGLLDKHGKPTDSTPATWKQEYVDYSESAKKEVVAEVVKAPQVVAEAAKTAKRKRESESESDETPPAAPQLIKKEKKKSKKDKKAKAGLESGAEPGDGDSDTTKKKKKKKKAKEVELVSE |  | no binding | no binding | binds | 

Now from value to molecule, other results behind:

binding [1] | binding [3] | binding [4] | binding [5] | Molecule | further results
binds |  |  |  | V5-tagged full-length human ABCF1 (from UniProt Q8NE71 1-845) | binding (FLAG-tagged OCT4 (human)): no binding; binding (FLAG-tagged SOX2 (human)): binds
no binding |  |  |  | V5-tagged IDR-truncated human ABCF1 (Δ302) (from UniProt Q8NE71 303-845) (domain or fragment) | 
